Among the data in PMC5510225 are binding values, retold here.

Amino acid sequences for entries named in this document (tags omitted).
UniProt Q9IH62: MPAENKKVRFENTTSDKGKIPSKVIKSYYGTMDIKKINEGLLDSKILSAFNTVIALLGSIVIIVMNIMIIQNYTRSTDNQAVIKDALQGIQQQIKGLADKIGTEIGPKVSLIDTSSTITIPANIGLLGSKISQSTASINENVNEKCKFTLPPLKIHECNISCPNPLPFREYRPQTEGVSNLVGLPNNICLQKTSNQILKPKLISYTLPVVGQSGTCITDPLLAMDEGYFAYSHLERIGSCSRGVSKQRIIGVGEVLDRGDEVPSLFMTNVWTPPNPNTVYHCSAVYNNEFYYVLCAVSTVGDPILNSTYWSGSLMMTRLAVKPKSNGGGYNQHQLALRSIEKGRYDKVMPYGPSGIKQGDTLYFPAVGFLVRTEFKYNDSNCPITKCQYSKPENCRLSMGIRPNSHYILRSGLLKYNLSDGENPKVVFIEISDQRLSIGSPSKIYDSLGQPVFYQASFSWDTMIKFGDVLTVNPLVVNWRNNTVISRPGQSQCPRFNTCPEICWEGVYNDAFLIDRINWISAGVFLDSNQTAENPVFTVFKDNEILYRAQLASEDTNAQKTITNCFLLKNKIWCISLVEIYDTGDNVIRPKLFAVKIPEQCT
UniProt P08362: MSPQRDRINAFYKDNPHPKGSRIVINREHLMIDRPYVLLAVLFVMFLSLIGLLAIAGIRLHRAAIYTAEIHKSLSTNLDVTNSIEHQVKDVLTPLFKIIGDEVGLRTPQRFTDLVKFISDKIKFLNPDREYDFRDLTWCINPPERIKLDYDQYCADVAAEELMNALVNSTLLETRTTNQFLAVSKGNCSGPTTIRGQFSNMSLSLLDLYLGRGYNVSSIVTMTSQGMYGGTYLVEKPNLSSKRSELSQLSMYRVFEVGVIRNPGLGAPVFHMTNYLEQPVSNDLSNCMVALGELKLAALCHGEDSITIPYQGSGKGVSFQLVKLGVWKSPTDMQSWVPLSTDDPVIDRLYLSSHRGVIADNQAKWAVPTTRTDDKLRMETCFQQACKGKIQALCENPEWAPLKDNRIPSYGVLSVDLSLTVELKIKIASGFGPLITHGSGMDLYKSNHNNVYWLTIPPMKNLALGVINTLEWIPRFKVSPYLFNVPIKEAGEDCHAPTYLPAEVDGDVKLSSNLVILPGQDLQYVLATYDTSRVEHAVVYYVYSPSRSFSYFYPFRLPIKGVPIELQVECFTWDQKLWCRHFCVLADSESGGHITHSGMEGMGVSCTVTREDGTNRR

The target of experiment [1] is Nipah virus attachment glycoprotein, HA-tagged, expressed on transfected cells (Nipah virus) (UniProt Q9IH62). The experiment in a line: flow cytometry on cells; only the binder purified.
Experiment [2] addresses measles virus haemagglutinin glycoprotein, expressed on transfected cells (measles virus) (UniProt P08362). Put plainly: flow cytometry on cells. On the technique in general: Flow cytometry measures light scatter and fluorescence of single cells or particles in a stream.

These are yes or no findings as the source states them, for the method shown. Some results given as binding are weak or reduced against the parent protein; the word gives no strength. For some assays here: Sequences can lack the tags named with a protein.

B1: human ephrinB3-hFc (Fc fusion, UniProt Q15768)
chain: LSLEPVYWNSANKRFQAEGGYVLYPQIGDRLDLLCPRARPPGPHSSPNYEFYKLYLVGGAQGRRCEAPPAPNLLLTCDRPDLDLRFTIKFQEYSPNLWGHEFRSHHDYYIIATSDGTREGLESLQGGVCLTRGMKVLLRVGQSPRGGAVPRKPVSEMPMERDRGAAHSLEPGKENLPGDPTSNATSRGAEGPLPPPSMP
B1: in experiment [1], the binding entry is “binds”.

B2: soluble human CD150 with a C-terminal FLAG epitope tag (receptor, UniProt Q13291)
chain: ASYGTGGRMMNCPKILRQLGSKVLLPLTYERINKSMNKSIHIVVTMAKSLENSVENKIVSLDPSEAGPPRYLGDRYKFYLENLTLGIRESRKEDEGWYLMTLEKNVSVQRFCLQLRLYEQVSTPEIKVLNKTQENGTCTLILGCTVEKGDHVAYSWSEKAGTHPLNPANSSHLLSLTLGPQHADNIYICTVSNPISNNSQTFSPWPGCRTDPSETKP
Take B2: the binding entry in experiment [2] was “binds”.
